PubChem BioAssay AID1259308 – NCATS, 2017

- Purpose: 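Genes whose loss raises luciferase production in HEK293 cells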 (primary screen)
- Cell system: human HEK293 embryonic kidney cells stably expressing firefly luciferase (HEK-CMV-Luc2-Hygro)
- Reagents: single siRNA against human genes, 0.8 pmol siRNA per well
- Duration: 72 h
- Read-out: 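Luciferase light (ONE-Glo) measured on one replicate plate set and viability (CellTiter-Glo) on the other, scaled to a negative control siRNA, with robust z-scores and luciferase per cell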
- Scale: total luciferase, z-score and total luciferase, % of control: higher = more reporter protein produced
- Call rule: 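Active when the median/MAD z-score for overall luciferase is greater than 3; a gene was taken forward for validation with new siRNAs if at least two of its three siRNAs passed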
- Meaning of the calls: active = raised luciferase; inactive = no rise
The deposit covers about 59,000 reagents; shown is a part drawn at random. In the full data, about 1,510 (2.6%) got an active call. 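Calls use total luciferase alone and ignore viability, so some active siRNAs may act by altering cell number.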 A number with no mark means an inactive call. Reagents against one gene are numbered here. Not all columns of the deposit are shown.

For CDK5R2 (GeneID 8941) #1, the entry reads total luciferase, z-score 0.729; total luciferase, % of control 96.4.
Depletion of CDK5R2 (GeneID 8941) #2 came out at: total luciferase, z-score -0.153; total luciferase, % of control 78.8.
Depletion of CDK5R2 (GeneID 8941) #3 came out at: total luciferase, z-score 0.125; total luciferase, % of control 84.4.
For FAM27E5 (GeneID 284123) #1, the entry reads total luciferase, z-score 0.986; total luciferase, % of control 102.
After knock-down of FAM27E5 (GeneID 284123) #2 the results were total luciferase, z-score -0.371; total luciferase, % of control 74.5.
Depletion of FAM27E5 (GeneID 284123) #3 gave: total luciferase, z-score 0.0333; total luciferase, % of control 82.5.
For CPNE8 (GeneID 144402) #1, the values are total luciferase, z-score 0.214; total luciferase, % of control 86.1.
Knock-down of CPNE8 (GeneID 144402) #2 came out at: total luciferase, z-score 0.183; total luciferase, % of control 85.5.
CPNE8 (GeneID 144402) #3 showed total luciferase, z-score -0.678; total luciferase, % of control 68.4.

Single entries from the entries so far:
Entry for CDK5R2 (GeneID 8941) #3 under “total luciferase, % of control”: 84.4
Value of CPNE8 (GeneID 144402) #2 under “total luciferase, z-score”: 0.183

Next entries:
Knock-down of KRT26 (GeneID 353288) #1 came out at: total luciferase, z-score -0.89; total luciferase, % of control 64.2.
KRT26 (GeneID 353288) #2 showed total luciferase, z-score -0.546; total luciferase, % of control 71.
Against KRT26 (GeneID 353288) #3 the deposit lists total luciferase, z-score 1.49; total luciferase, % of control 112.
With knock-down of SCARB1 (GeneID 949) #1, the screen gave total luciferase, z-score -0.815; total luciferase, % of control 65.7.
Against SCARB1 (GeneID 949) #2, the values are total luciferase, z-score -0.241; total luciferase, % of control 77.1.
Depletion of SCARB1 (GeneID 949) #3 resulted in: total luciferase, z-score -0.773; total luciferase, % of control 66.5.
DBNL (GeneID 28988) #1 scored total luciferase, z-score -0.0892; total luciferase, % of control 80.1.
DBNL (GeneID 28988) #2 gave total luciferase, z-score 0.589; total luciferase, % of control 93.6.
DBNL (GeneID 28988) #3 scored total luciferase, z-score -1.17; total luciferase, % of control 58.5.
For KMT2E (GeneID 55904) #1, the entry reads total luciferase, z-score 1.55; total luciferase, % of control 113.
After knock-down of KMT2E (GeneID 55904) #2, the record shows total luciferase, z-score 0.0146; total luciferase, % of control 82.2.
Against KMT2E (GeneID 55904) #3, the values are total luciferase, z-score -0.221; total luciferase, % of control 77.5.
